Data from patent US6699969.
Results are given in words; binding and its absence hold for the method and conditions named. Binding seen in cells or lysates may run through a third protein. Some entries that bind do so weakly or less than the wild type. Where a sequence is shown, tags or fusion partners need not be part of it.

The chains behind the UniProt entries cited, without tags or fusion partners. Where a name states a change or a piece, a line headed by the entry shows the natural chain unless it says otherwise.
UniProt O61577: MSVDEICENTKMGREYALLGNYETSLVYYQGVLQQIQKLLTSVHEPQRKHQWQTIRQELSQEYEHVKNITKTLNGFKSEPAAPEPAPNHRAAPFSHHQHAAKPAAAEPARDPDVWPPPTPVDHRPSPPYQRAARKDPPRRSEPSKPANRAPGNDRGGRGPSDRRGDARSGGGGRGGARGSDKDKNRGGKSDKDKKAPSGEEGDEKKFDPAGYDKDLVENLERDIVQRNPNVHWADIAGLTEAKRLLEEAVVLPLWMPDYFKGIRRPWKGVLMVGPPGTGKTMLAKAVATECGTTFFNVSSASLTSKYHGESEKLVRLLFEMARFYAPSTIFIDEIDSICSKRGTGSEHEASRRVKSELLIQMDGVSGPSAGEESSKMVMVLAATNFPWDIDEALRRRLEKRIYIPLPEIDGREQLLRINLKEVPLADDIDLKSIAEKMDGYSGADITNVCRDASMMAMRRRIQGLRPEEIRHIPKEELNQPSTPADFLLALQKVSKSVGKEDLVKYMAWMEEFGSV

Tests used:
[1] = biological target: in vitro translated S. purpuratus p60 katanin with 37 amino acid N-terminal S-Tag (Strongylocentrotus purpuratus) (UniProt O61577); test: in vitro co-translation, co-immunoprecipitation with anti-p60 antibody, S-protein HRP blot
[2] = biological target: in vitro translated S. purpuratus p60 katanin with 37 amino acid N-terminal S-Tag (Strongylocentrotus purpuratus) (UniProt O61577); test: in vitro co-translation, co-immunoprecipitation with p60-specific antibody, chemiluminescence blot

- binding [1]: binds
- binding [2]: binds
B1: p80 delta 1-302, truncated S. purpuratus p80 katanin lacking the entire WD40 domain, with N-terminal S-Tag (protein, not shown: small tags and cut ends)
chain: TTGIAQEPQSQPSKTPSGGAEEVPSKPLTASGRKNFVRERPHTTSSKQRQPDVKSEPERQSPTQDEGVKDDDATDIKDPDSYAKIFSPKTRVDHSPERNAQPFPAPLDVPGAQEPEPFKHPPKPAAAAAVAPVSRAPAPSASDWQPAQANPAPNRVPAATKPVPAQEVAPSRKPDPISTIIPSDRNKPANLDMDAFLPPAHAQQAPRVNAPASRKQSDSERIEGLRKGHDSMCQVLSSRHRNLDVVRAIWTAGDAKTSVESVVNMKDQAILVDILNIMLLKKSLWNLDMCVVVLPRLKELLSSKYENYVHTSCACLKLILKNFTSLFNQNIKCPPSGIDITREERYNKCSKCYSYLIATRGYVEEKQHVSGKLGSSFRELHLLLDQLE
